Experimental data reported in the supplement of paper PMC3334620.
In all, about 33,000 sequences were measured (“E-score (-0.5 to 0.5)”: median about -0.015, highest 2% from about 0.3 on). The list shows a part of the results.

The sequences below were run against T1, Abf1 (UniProt P14164) (assay: PBM E-score (8-mer binding enrichment) (E-score (-0.5 to 0.5)); higher = stronger / more preferred TF binding). Details: protein concentration: 200 nM; construct: GST-full length.
T1 sequence: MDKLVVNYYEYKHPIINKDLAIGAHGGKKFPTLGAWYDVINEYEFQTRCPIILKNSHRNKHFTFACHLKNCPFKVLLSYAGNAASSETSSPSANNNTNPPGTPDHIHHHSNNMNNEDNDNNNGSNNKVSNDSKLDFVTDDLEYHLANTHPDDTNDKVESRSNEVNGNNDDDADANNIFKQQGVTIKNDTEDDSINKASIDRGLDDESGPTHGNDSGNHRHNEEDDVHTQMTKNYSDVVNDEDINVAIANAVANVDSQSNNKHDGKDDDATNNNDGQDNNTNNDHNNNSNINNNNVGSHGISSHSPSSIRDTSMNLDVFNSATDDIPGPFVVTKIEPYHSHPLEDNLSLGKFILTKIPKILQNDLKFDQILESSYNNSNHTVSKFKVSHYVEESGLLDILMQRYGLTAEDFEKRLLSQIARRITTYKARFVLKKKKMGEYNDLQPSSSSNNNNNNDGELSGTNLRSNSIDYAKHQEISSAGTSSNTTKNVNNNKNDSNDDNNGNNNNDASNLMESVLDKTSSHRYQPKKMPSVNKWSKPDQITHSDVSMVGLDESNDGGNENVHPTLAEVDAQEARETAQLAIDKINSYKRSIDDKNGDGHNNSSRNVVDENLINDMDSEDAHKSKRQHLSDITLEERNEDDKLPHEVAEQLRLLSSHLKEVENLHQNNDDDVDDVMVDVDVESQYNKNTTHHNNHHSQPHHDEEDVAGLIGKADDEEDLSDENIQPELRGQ
In short: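 Each ungapped eight-base word and its reverse complement, pooled, received an E-score from the Universal PBM Analysis Suite. Underlying scans, normalised with masliner, recorded fluorescent anti-GST bound to GST-tagged yeast transcription factors. These were applied at about 100-200 nM to universal all-10-mer Agilent arrays double-stranded by primer extension.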

Sequence	PBM E-score
CCCTGACG	-0.00862
GAACCATC	-0.152
CACGCGGA	0.129
ATGTACAC	0.0413
CCCGGGGC	-0.227
AACTCAGT	-0.224
GCGGATAA	0.137
GACCAAAA	0.183
AGCCCTAG	-0.18
GCTAACCA	-0.0495
ATTGGCTG	-0.0632
GGATTCAC	-0.0209
AGGCCTCC	-0.135
CGGCTCAA	-0.00183
TCACCTCA	0.21
TATTGTAA	0.133
CGCCGGGC	-0.161
GGAGGCCC	-0.223
AAGTCGCT	-0.0265
GAGCTTAC	-0.0972
CGTGATGA	0.31
ATGCTAAT	0.0338
CATTAAAA	0.129
CTTCGAGC	-0.178
AAAATCTC	0.0592

Sequence	PBM E-score
ATTCGCCA	0.178
GCCAAGAC	-0.122
CTGACCAC	-0.102
TATCGAGA	0.0688
AGAGCAGG	-0.173
GGTAGCCA	0.134
ACAAGACT	-0.059
CCCAGGGG	-0.373
AATGTTGC	0.00562
ATAGCAAT	0.13
AAGTTGCG	0.0343
CGGGGTTA	0.136
GGTTGCGA	0.154
AGATTGGC	-0.188
AAGGCCGC	-0.0691
CCCGCTCC	-0.298
CAGGCACG	0.149
ATAGAGTG	0.0485
CTATATCA	0.267
AAATTCGG	0.0545
GGTGGACA	-0.131
CTTGATTA	-0.149
AGATGAAC	-0.0774
ATGACCAG	0.144
AAAATGTA	0.127

Sequence	PBM E-score
ACGTTCGA	-0.00173
AAGCCTCC	-0.193
GTGACAAC	0.375
CTTTCATA	0.14
CAGGATAC	0.0654
CTGTGTAA	0.0527
TAGGGAAA	0.096
AATCATAT	0.191
ACGGTTCG	0.192
GAAAGACC	-0.183
CGACTCTC	-0.0891
CCGGCGCC	0.0169
AAAATAGG	0.0199
GAGATGAA	-0.253
GCTAGAGA	0.0223
CCCCTTCC	-0.152
ACTAAAGG	-0.0713
ATTCACAA	0.121
GAATGGGC	-0.165
CGCACGCG	-0.146
GATCTGGC	0.0128
GGGGGCAC	-0.276
CAGAGCAC	-0.137
ATCCGATG	0.0878
ATCGGTGG	-0.12

Sequence	PBM E-score
AACTGGCT	-0.0911
AGGGCCCA	-0.324
ACCCATCA	-0.117
AGAGCGGG	-0.303
CGAAGGCC	-0.0665
GAGTTGAA	0.0196
AAAAGGCG	0.101
GATAAGGC	0.102
AATAAATC	0.0801
CCTAATCC	-0.151
AGTGAACT	-0.111
CTTCCCGC	-0.185
CATACGAA	0.267
GTCCCCTA	-0.0753
TAAATCCA	0.0899
ATACGTGG	0.155
CGTAGAAG	0.222
GGTTTGAC	0.0419
CTCCGCAG	-0.188
ACTACGAC	0.117
ATATCTGG	-0.0601
CTTCATTC	-0.00981
CACATTGC	0.114
CTGCCTTA	-0.0396
ATCGGATA	0.00543

Reformatted bar-delimited: part of the list above
Sequence | PBM E-score
CCTAATCC | -0.151
AGTGAACT | -0.111

Continued.

Sequence	PBM E-score
GCATATAA	0.149
CTCGCTCA	0.00676
CGGGGAGA	-0.168
CCCTAAAG	-0.129
CTGAGCTC	-0.232
CGTGATCC	-0.0112
CACCCTAC	0.0301
CTGGCGCC	-0.174
TAAAGTCA	0.156
ATGTAGCA	0.236
AAGCAAGG	-0.0713
TACCAGGA	0.0687
AACCTCAG	0.0107
GATGCCCA	-0.0338
GAGGATGC	-0.0459
TTAGTGAA	0.145
ACTATATG	0.216
AGAATCGG	0.00628
CAAGGCCC	-0.381
CAAAAGAC	-0.115
CGTACCTA	0.142
TATTGCAA	-0.0157
CGCAAAAG	-0.0748
CTAGAGAA	-0.0539
CTTAGAGA	0.0261

Sequence	PBM E-score
CGACTCAC	-0.034
CATATCCC	0.133
GGAAGCAC	-0.0279
AGGGGAAT	0.0263
ACGGCCGC	0.164
GGAAGGGA	-0.285
AGAAGGGA	-0.335
GGAGGTTA	-0.133
GCCGAGCA	-0.195
GTATATCA	0.386
AAAGAGGA	-0.237
CGGTCAGC	-0.137
AAATTAGC	0.0388
CACCTCCC	-0.167
AAACAACT	0.0342
TTCTGAAA	0.00775
ATACTGTA	0.0204
CATTTGCC	-0.165
GACGTCTA	0.0745
ACAACCGG	0.0327
AATGATAC	0.288
CACTTCAA	0.0436
CGAGTACC	0.0195
AGGCGCAC	-0.00058
CCTGAAAC	-0.0278

Sequence	PBM E-score
CACTGATC	-0.0563
CGCCCTTA	-0.061
CTTTACCC	-0.141
CGGCATGA	0.268
AGGGTGAA	-0.209
CATATTCA	0.0439
CTGCGTGC	-0.0328
CCCTGCTC	-0.181
GGAGACCA	-0.147
CCGGACGG	-0.145
CTCTAGGC	0.0155
GCCAGTTA	0.0901
GGCGGACA	-0.302
ACTCCCCG	-0.145
AATTGCCG	-0.0915
GGTGACCA	0.0526
CGACCCTA	-0.0254
CTTAAATA	0.0857
AGTCGTAT	0.23
CGGTACGA	0.291
GGCTTGGA	-0.318
CCGATGCG	-0.146
CAAGTGTG	0.0542
AAGGGGCT	-0.133
CCCACGCG	-0.278

An excerpt taken from the entries so far, for reference:
Sequence	PBM E-score
CGACCCTA	-0.0254
CTTAAATA	0.0857
AGTCGTAT	0.23

Additional results follow:

Sequence	PBM E-score
CGAACACG	0.188
GTGCTTGA	0.0441
GCGTATCC	-0.142
ACCCATTA	-0.0415
AATAAAAA	0.168
GAGTTAGA	-0.13
ACCATAGG	-0.214
CGAAGTCG	0.12
GATTATCA	0.302
AGTTGGCG	0.0496
CGACGTCG	0.0452
GACAGAGA	0.00306
GATGGTAA	0.0264
CATGGGAA	-0.0428
ATGTACGG	0.241
CTTGTGGA	-0.249
AGCAATAT	0.148
AGAGTCAA	-0.312
GGTAATAA	0.1
CTAATTAC	0.0227
ACATGCTA	0.0424
CGAAGCCG	-0.0718
AGGTAGCA	-0.186
CGCGTTTA	-0.0607
AAGGAGAC	-0.117

Sequence	PBM E-score
AGTTATTA	0.157
CTATAACC	-0.0438
CCATGCGG	-0.272
AAATTAAG	-0.0306
CAGTGCTA	-0.161
CTTCCTGC	-0.184
ACATCGGA	0.0338
GTCATGCA	0.208
CCCCCACG	-0.23
CACTGCCG	0.0574
GACTTTAA	-0.0109
ATCTCTAC	-0.0063
AGCCTGTG	-0.16
GTCCGTTA	0.161
ACAACTTA	0.0805
AGACAGGG	-0.119
ACCTTGTG	-0.0546
ATAACAAA	0.129
GAAGGGCA	-0.172

An excerpt of these results, as labelled records.
CACTGCCG
  PBM E-score: 0.0574
GACTTTAA
  PBM E-score: -0.0109
